According to PubChem BioAssay AID206 (DTP/NCI, 2004):
The list shows only some results of the screen, not a fair sample: it is rich in T/C values a quarter to a half above the control, in often repeated tests (any T/C) and in doses without a T/C. Other doses and runs of a compound stand elsewhere. T/C gives the treated animals as a percentage of the vehicle group. Schedule codes are those of the source, taken here to give the interval after Q, in days (D) or hours (H), and the number of doses after X. Some T/C values are followed by the survivors on the day toxicity was checked, most often the fifth; without a count, all were alive then. Some T/C values are negative: the treated tumours shrank. Some entries were tested several times; the results are listed from low to high. Some entries give survivors of the animals treated and no T/C: the source holds a T/C of zero for them, seemingly a mark for toxic or unscored doses. Counts of survivors are from the toxicity check (mostly the fifth day) where no day follows; animals may have died later.

Test system: nude mice, HT29 intrarenal xenograft, tumor weight T/C
Test: NCI In Vivo Anticancer Drug Screen. Data for tumor model HT29;CX-1 Human Adenocarcinoma (MER+) (intrarenal inoculation) in NU/NU Swiss (nude) mice
Conditions: T/C endpoint: mean tumor weight change, higher T/C = larger tumour
Method: The antitumor activity of compounds was measured in mice bearing transplantable tumors. Survival or tumor size were measured and the results are expressed as the measurement made in the treated group (T) divided by the measurement made in the vehicle treated control group (C). The tumor model used in this assay is HT29;CX-1 Human Adenocarcinoma (MER+) (intrarenal inoculation) in NU/NU Swiss (nude) mice

[1] = dose: 400.0 mg/kg/injection, schedule: Q04DX004 (sc), vehicle: saline with Tween-80
[2] = dose: 50.0 mg/kg/injection, schedule: Q01DX010 (sc), vehicle: saline
[3] = dose: 100.0 mg/kg/injection, schedule: Q01DX010 (sc), vehicle: saline
[4] = dose: 200.0 mg/kg/injection, schedule: Q01DX010 (sc), vehicle: saline
[5] = dose: 400.0 mg/kg/injection, schedule: Q04DX004 (sc), vehicle: Klucel (hydroxypropylcellulose) (HPC)

CC(=O)Nc1ccc(S(=O)(=O)CO)cc1
survivor count (dose: 900.0 mg/kg/injection, schedule: Q04DX004 (sc), vehicle: saline with Tween-80): 0 of 6 on day 15 | survivor count (dose: 1800.0 mg/kg/injection, schedule: Q04DX004 (sc), vehicle: saline with Tween-80): 0 of 6 on day 15

OC(C1CO1)C(O)C1CO1 (stereo unspecified)
survivor count (dose: 4.0 mg/kg/injection, schedule: Q01DX010 (sc), vehicle: saline): 0 of 3 on day 11 and 1 of 3 on day 11 | survivor count (dose: 8.0 mg/kg/injection, schedule: Q01DX010 (sc), vehicle: saline): 0 of 3 on day 11 | survivor count (dose: 16.0 mg/kg/injection, schedule: Q01DX010 (sc), vehicle: saline): 0 of 3 on day 11

CCN(CC)CCOC(=O)Cc1cccc2c(=O)cc(-c3ccccc3)oc12
survivor count [1]: 0 of 6 on day 15

COc1cc2c(c(OC)c1OC)-c1ccc(OC)c(=O)cc1[C@@H](NC(=O)CCl)CC2
survivor count (dose: 5.0 mg/kg/injection, schedule: Q04DX004 (sc), vehicle: saline with Tween-80): 2 of 6 on day 15

CCC1OCC(C(Cl)CCl)O1 (stereo unspecified)
T/C (dose: 300.0 mg/kg/injection, schedule: Q04DX004 (sc), vehicle: Klucel (hydroxypropylcellulose) (HPC), evaluated on day 15): 47, 64, 83, 113, 114, 210 % of control | T/C (dose: 600.0 mg/kg/injection, schedule: Q04DX004 (sc), vehicle: Klucel (hydroxypropylcellulose) (HPC), evaluated on day 15): 7, 18, 26, 27, 42 [5 of 6 alive on day 15], 61, 135 % of control | T/C (dose: 1200.0 mg/kg/injection, schedule: Q04DX004 (sc), vehicle: Klucel (hydroxypropylcellulose) (HPC), evaluated on day 15): -71 [5 of 6 alive on day 15], -68, 28 [5 of 6 alive on day 15], 32 [5 of 6 alive on day 15], 80 % of control | survivor count (dose: 1200.0 mg/kg/injection, schedule: Q04DX004 (sc), vehicle: Klucel (hydroxypropylcellulose) (HPC)): 0 of 6 on day 15 and 3 of 6 on day 15 | survivor count (dose: 1200.0 mg/kg/injection, schedule: Q04DX004 (sc), vehicle: other): 0 of 6 on day 15 | T/C (dose: 2400.0 mg/kg/injection, schedule: Q04DX004 (sc), vehicle: Klucel (hydroxypropylcellulose) (HPC), evaluated on day 15): -94 [4 of 6 alive on day 15], 10, 21 % of control [4 of 6 alive on day 15] | survivor count (dose: 2400.0 mg/kg/injection, schedule: Q04DX004 (sc), vehicle: Klucel (hydroxypropylcellulose) (HPC)): 0 of 6 on day 15, 2 of 6 on day 15, 3 of 6 on day 15 | survivor count (dose: 2400.0 mg/kg/injection, schedule: Q04DX004 (sc), vehicle: other): 0 of 6 on day 15 | survivor count (dose: 4800.0 mg/kg/injection, schedule: Q04DX004 (sc), vehicle: Klucel (hydroxypropylcellulose) (HPC)): 0 of 6 on day 15

C=C(C)C(=NC(C)(C)C)Nc1ccccc1
survivor count (dose: 200.0 mg/kg/injection, schedule: Q04DX004 (sc), vehicle: saline with Tween-80): 1 of 6 on day 15 | survivor count [1]: 1 of 6 on day 15 | survivor count (dose: 800.0 mg/kg/injection, schedule: Q04DX004 (sc), vehicle: saline with Tween-80): 0 of 6 on day 15

CN(C)/N=N/c1nc[nH]c1C(N)=O
survivor count (dose: 400.0 mg/kg/injection, schedule: Q01DX010 (sc), vehicle: Klucel (hydroxypropylcellulose) (HPC)): 0 of 3 on day 11 | survivor count (dose: 800.0 mg/kg/injection, schedule: Q01DX010 (sc), vehicle: Klucel (hydroxypropylcellulose) (HPC)): 0 of 3 on day 11

O=C(Nc1ccc(N=C=S)cc1Cl)c1cc(Cl)cc(Cl)c1O
T/C (dose: 100.0 mg/kg/injection, schedule: Q04DX004 (sc), vehicle: Klucel (hydroxypropylcellulose) (HPC), evaluated on day 15): 130 % of control

Cc1ccc(S(=O)(=O)NC(=S)S)cc1
T/C (dose: 400.0 mg/kg/injection, schedule: Q01DX010 (sc), vehicle: saline with Tween-80, evaluated on day 11): 139 % of control | survivor count (dose: 800.0 mg/kg/injection, schedule: Q01DX010 (sc), vehicle: saline with Tween-80): 0 of 3 on day 11

Cc1ccc2c(c1)N=C(Nc1ccccc1)N=S2(C)=O (stereo unspecified)
survivor count [1]: 2 of 6 on day 15

CCN(CC)CCOCCO
T/C (dose: 600.0 mg/kg/injection, schedule: Q04DX004 (sc), vehicle: saline, evaluated on day 15): 141 % of control | survivor count (dose: 1200.0 mg/kg/injection, schedule: Q04DX004 (sc), vehicle: saline): 2 of 6 on day 15

Cc1c2ccncc2c(C)c2c1[nH]c1ccccc12
survivor count [2]: 1 of 3 on day 11 | survivor count [3]: 1 of 3 on day 11

C#C[C@]1(O)CC[C@H]2[C@@H]3CCc4cc(O)ccc4[C@H]3CC[C@@]21C
survivor count (dose: 300.0 mg/kg/injection, schedule: Q04DX004 (sc), vehicle: Klucel (hydroxypropylcellulose) (HPC)): 3 of 6 on day 15

O=C(NO)c1ccc(O)c(O)c1
T/C (dose: 800.0 mg/kg/injection, schedule: Q04DX004 (sc), vehicle: water, evaluated on day 15): 126 % of control | survivor count (dose: 1600.0 mg/kg/injection, schedule: Q04DX004 (sc), vehicle: water): 0 of 4 on day 15

NC(C/[N+]([O-])=N/O)C(=O)O (stereo unspecified)
survivor count [4]: 0 of 3 on day 11 | survivor count (dose: 400.0 mg/kg/injection, schedule: Q01DX010 (sc), vehicle: saline): 0 of 3 on day 11

O=C(O)C1Cc2nc[nH]c2CN1CO (stereo unspecified)
T/C (dose: 50.0 mg/kg/injection, schedule: Q04DX004 (sc), vehicle: saline with Tween-80, evaluated on day 15): 136 % of control | T/C (dose: 800.0 mg/kg/injection, schedule: Q04DX004 (sc), vehicle: saline with Tween-80, evaluated on day 15): 126 % of control [4 of 5 alive on day 15]

C[n+]1ccc(Nc2ccc(NC(=O)c3ccc(Nc4cc[n+](C)c5ccc(N)cc45)cc3)cc2)cc1
survivor count (dose: 64.0 mg/kg/injection, schedule: Q04DX004 (sc), vehicle: distilled water + Tween-80): 2 of 6 on day 15 | survivor count (dose: 100.0 mg/kg/injection, schedule: Q04DX004 (sc), vehicle: distilled water + Tween-80): 1 of 6 on day 15 | survivor count (dose: 200.0 mg/kg/injection, schedule: Q04DX004 (sc), vehicle: distilled water + Tween-80): 0 of 6 on day 15

CC(=O)OCC1OC(OC2=C(CC=C(C)C)C(=O)c3ccccc3C2=O)C(OC(C)=O)C(OC(C)=O)C1OC(C)=O (stereo unspecified)
survivor count [5]: 2 of 6 on day 15

O=P1(N(CCCl)CCCl)NCCCO1 (stereo unspecified)
survivor count [2]: 0 of 3 on day 11 | survivor count [3]: 0 of 3 on day 11 | survivor count [4]: 0 of 3 on day 11

C1CN(P2(N3CC3)=NP(N3CC3)(N3CC3)=NP(N3CC3)(N3CC3)=N2)CCO1 (stereo unspecified)
survivor count [2]: 0 of 3 on day 20

CSc1cc(C)[o+]c(C)c1
survivor count [5]: 0 of 6 on day 15

COc1cc(NS(C)(=O)=O)ccc1Nc1c2ccccc2nc2ccccc12
survivor count (dose: 0.75 mg/kg/injection, schedule: Q01DX010 (sc), vehicle: other): 0 of 3 on day 11 | survivor count (dose: 1.5 mg/kg/injection, schedule: Q01DX010 (sc), vehicle: lactic acid): 1 of 3 on day 11 | survivor count (dose: 1.5 mg/kg/injection, schedule: Q01DX010 (sc), vehicle: other): 0 of 3 on day 11 | survivor count (dose: 3.0 mg/kg/injection, schedule: Q01DX010 (sc), vehicle: lactic acid): 0 of 3 on day 11 | survivor count (dose: 3.0 mg/kg/injection, schedule: Q01DX010 (sc), vehicle: other): 0 of 3 on day 11 | survivor count (dose: 6.0 mg/kg/injection, schedule: Q01DX010 (sc), vehicle: lactic acid): 0 of 3 on day 11 | survivor count (dose: 6.0 mg/kg/injection, schedule: Q01DX010 (sc), vehicle: other): 1 of 3 on day 11

CCOC(=O)C(N)C[S][Sn]([CH3])([CH3])[Cl] (stereo unspecified)
T/C (dose: 37.5 mg/kg/injection, schedule: Q04DX004 (sc), vehicle: saline, evaluated on day 15): 125 % of control | survivor count (dose: 150.0 mg/kg/injection, schedule: Q04DX004 (sc), vehicle: saline): 1 of 6 on day 15

O=C(O)C1CSCN1 (stereo unspecified)
survivor count (dose: 200.0 mg/kg/injection, schedule: Q01DX010 (sc), vehicle: water): 0 of 3 on day 11 | survivor count (dose: 400.0 mg/kg/injection, schedule: Q01DX010 (sc), vehicle: water): 0 of 3 on day 11
